# Laboratory results published in PubChem BioAssay AID1439 (NMMLSC, 2008).
# The chains behind the UniProt entries cited, without tags or fusion partners.
# UniProt P09471, whole entry, looked up: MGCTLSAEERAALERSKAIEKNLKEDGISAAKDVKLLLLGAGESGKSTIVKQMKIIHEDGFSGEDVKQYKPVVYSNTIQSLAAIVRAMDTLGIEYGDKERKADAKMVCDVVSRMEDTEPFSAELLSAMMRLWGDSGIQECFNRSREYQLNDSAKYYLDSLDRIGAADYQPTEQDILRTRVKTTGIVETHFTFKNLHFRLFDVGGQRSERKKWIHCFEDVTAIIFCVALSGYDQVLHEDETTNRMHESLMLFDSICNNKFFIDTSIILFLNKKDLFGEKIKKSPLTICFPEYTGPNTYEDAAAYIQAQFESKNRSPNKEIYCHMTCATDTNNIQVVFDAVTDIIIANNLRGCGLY
# Screen size: about 220,000 compounds; about 770 (0.35%) were called active. Rule as the data show it: active = binding response below about 49% or above about 150%; inconclusive = no clear call, values can overlap the other calls; inactive = in between. Inconclusive results, whose numbers are uncertain, are shown.
# Target: Guanine nucleotide-binding protein G(o) subunit alpha (Homo sapiens) (UniProt P09471)
# Experiment: RGS7-Galphao binding modulators, primary screen, biochemical, multiplexed bead flow cytometry (AID 1439);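 also: fluorescent Galphao held in activated GDP-AlF4 state binding bead-coupled RGS7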
# Conditions: at 10 µM, actives lie on both sides
row,SMILES,binding response (% of control)
1,CC(C)(C)OC(=O)NCCCC[C@H](NC(=O)c1[nH]cnc1C(=O)Nc1ccc(Cl)cc1)C(=O)OC(C)(C)C,inconclusive: 83.1%
2,CCOc1ccc(NC(=S)Nc2cccnc2)cc1,inconclusive: 89.8%
3,COC(=O)c1ccccc1-c1ccc(/C=N/NC(N)=O)o1,inconclusive: 80.5%
4,COc1ccc(C(=O)NCC(=O)OCC(=O)c2ccc3c(c2)NC(=O)CO3)cc1,inconclusive: 98.2%
5,CCOc1cc(C(=O)NC(=S)Nc2ccc(Cl)c(C(=O)O)c2)cc(OCC)c1OCC,inconclusive: 55.2%
6,Cc1occc1C(=O)N/N=C/c1ccc(N(C)C)cc1,inconclusive: 95%
7,Cc1onc(-c2ccccc2Cl)c1C(=O)c1ccccc1,inconclusive: 201%
8,O=C(c1ccncc1)N1CCN(c2ccc3ccccc3n2)CC1,inconclusive: 126%
9,CN=C(C)/C(C(=O)OC)=C(/O)c1c(F)cccc1F,inconclusive: 61.3%
10,O=c1c(-c2ccco2)[n+]([O-])c2ccccc2n1OCc1c(F)cccc1F,inconclusive: 29.1%
11,CCOC(=O)C1=C(C)NC2=C(C(=O)c3ccccc32)C1c1cccc2ccccc12 (stereo not given),inconclusive: 82.8%
12,COc1ccc(CCCc2nnc(SCc3nc4ccccc4c(=O)[nH]3)n2C)c(C)c1,inconclusive: 241%
13,Cc1ccc(OCc2nnc(NC(=O)c3cccnc3)s2)cc1,inconclusive: 93.6%
14,COC(=O)c1c(NC(=O)c2ccc(C)cc2)csc1C,inconclusive: 107%
15,C/C(=N\Nc1ccc2nncn2n1)c1ccccn1,inconclusive: 118%
16,CC(=O)Nc1sc(-c2ccc(Cl)cc2)nc1-c1ccccc1,inconclusive: 99.6%
17,Cn1c(=O)[nH]c(=O)c2c1nc([N+](=O)[O-])n2Cc1ccccc1,inconclusive: 506%
18,Nc1nccc(/C=C/c2c(Cl)cccc2Cl)n1,inconclusive: 34.1%
19,C=CCN1C(=O)C(Cc2ccccc2Cl)SC1=Nc1ccc(C(=O)O)cc1 (stereo not given),inconclusive: 138%
20,CC(C)(CN1CCC(Cc2ccccc2)CC1)NS(=O)(=O)c1ccccc1,inconclusive: 60.4%
21,Cn1nc(-c2ccc(C(=O)NCCO)cc2)c2ccccc2c1=O,inconclusive: 82.8%
22,CCN1CCN(c2cc(C)c3cc(NC(=S)N4CCCCC4)ccc3n2)CC1,inconclusive: 108%
23,Cc1ccc(-n2ncc3c(N4CCCC(C)C4)ncnc32)c(C)c1 (stereo not given),inconclusive: 97.7%
24,Cc1ccc([N+](=O)[O-])c2c1C(N1CC(C)OC(C)C1)C(C)(C)O2 (stereo not given),inconclusive: 99.7%
25,CC(C)CCNC(=O)c1ccc(-c2ccccc2)cc1,inconclusive: 81.2%

# In another format: entries from further up
row	SMILES	binding response (% of control)
18	Nc1nccc(/C=C/c2c(Cl)cccc2Cl)n1	inconclusive: 34.1%
19	C=CCN1C(=O)C(Cc2ccccc2Cl)SC1=Nc1ccc(C(=O)O)cc1 (stereo not given)	inconclusive: 138%
